Results taken from publication PMC11802792.
No constants are given. Whether binding was seen depends on the method and setting. In cells and extracts the contact can be indirect. Some results given as binding are weak or reduced against the parent protein; the word gives no strength. For some assays here: Sequences can lack the tags named with a protein. Each block holds one binder with its values, some of them ahead of it.

Assays:
Flag-FSP1 = target: T1, Flag-FSP1 (UniProt Q8BUE4); assay: co-IP; HEK293T cells co-transfected with Flag-FSP1 and HA-NDUFA1; immunoprecipitation with anti-Flag M2 beads to pull down Flag-FSP1
T1 sequence: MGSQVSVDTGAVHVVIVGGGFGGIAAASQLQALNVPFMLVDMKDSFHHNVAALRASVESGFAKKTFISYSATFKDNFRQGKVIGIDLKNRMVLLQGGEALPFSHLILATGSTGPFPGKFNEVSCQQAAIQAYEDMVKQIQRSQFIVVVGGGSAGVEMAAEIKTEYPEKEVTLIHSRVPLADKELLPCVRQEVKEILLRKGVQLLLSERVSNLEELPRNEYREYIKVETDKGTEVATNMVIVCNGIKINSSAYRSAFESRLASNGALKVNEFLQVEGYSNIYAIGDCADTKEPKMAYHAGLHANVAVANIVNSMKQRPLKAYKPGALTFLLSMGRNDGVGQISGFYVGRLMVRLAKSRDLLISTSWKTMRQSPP

[1] = target: T2, FSP1 in tubular epithelial cells (UniProt Q8BUE4); assay: proximity ligation; Duolink PLA in fixed, permeabilised tubular epithelial cells after 24 h of cisplatin treatment; primary antibodies 1:200 overnight at 4 °C, anti-rabbit PLUS and anti-mouse MINUS probes
T2 sequence: T1 sequence

binding (Flag-FSP1): binds
B1: HA-NDUFA1 (protein, UniProt O35683 1-70)
chain: MWFEILPGLAIMGVCLVIPGVSTAYIHKFTNGGKEKRVARVQYQWYLMERDRRISGVNRYYVSKGLENID

binding [1]: binds
B2: NDUFA1 in tubular epithelial cells (protein, UniProt O35683 1-70)
chain: B1 chain
